Results as given in patent publication US12409206B2, “Use of cyclosporine analogues for treating fibrosis” (Hepion Pharmaceuticals, Inc., priority 2020, dated 2025).

Assays:
[1] = tested on: human precision cut liver slices (PCLS); test: PCLS RNA-Seq, Stimulation Protocol: TGFb/PDGF+CRV vs TGFb/PDGF+Vehicle; assay type: cell-based; conditions: overlap of all three donors
Experimental: (§1) PCLS were obtained from 5 human donors who underwent resection of liver cancer. Replicate slices were collected from healthy margins of the resections and cultured for 4 or 6 days depending on the experimental protocol. In the Nonstimulation Protocol slices were cultured for 6 days and treated for the entire period with DMSO vehicle or 5 μM CRV431. In the Stimulation Protocol slices were rested for 1 day and then administered the cytokines, TGFβ and PDGF-BB, for 3 days to stimulate inflammation and fibrosis. […]
(§2) Four types of evaluations were conducted on the PCLS: (a) secretion of inflammation and fibrosis biomarkers into the culture medium, (b) histological staining and quantitation of Sirius red as a measure of tissue fibrosis, (c) gene expression of inflammation and fibrosis biomarkers by RT-PCR, and (d) RNA sequencing (RNA-Seq) of the complete transcriptome. […] ELISAs were used to quantify secretion of monocyte chemoattractant protein (MCP-1), interleukin-6 (IL-6), tissue inhibitor of metalloproteinase-1 (TIMP1), hyaluronic acid, fibronectin, and collagen 1α1. For each donor the mean level of biomarker secretion in each treatment group was expressed as a percentage change relative to DMSO vehicle, the percentages averaged for all donors, and finally the mean daily percentage change calculated from all days of evaluation. […]

[2] = tested on: human precision cut liver slices (PCLS); test: PCLS RNA-Seq, Nonstimulation Protocol: Non-stimulated+CRV vs Non-stimulated+Vehicle; assay type: cell-based; conditions: overlap of all three donors
Experimental: as §1, §2

CC[C@@H]1NC(=O)[C@H]([C@H](O)[C@H](C)CCCCCCNC(C)=O)N(C)C(=O)[C@H](C(C)C)N(C)C(=O)[C@H](CC(C)C)N(C)C(=O)[C@H](CC(C)C)N(C)C(=O)[C@@H](C)NC(=O)[C@H](C)NC(=O)[C@H](CC(C)C)N(C)C(=O)[C@H](C(C)C)NC(=O)[C@H](CC(C)C)N(C)C(=O)[C@@H](C)N(C)C1=O [CRV431]
number of genes with at least 300 copies less in the CRV treated than in the vehicle [1]: 279 genes | number of genes with at least 300 copies more in the CRV treated samples than in the vehicle [1]: 117 genes | number of genes with 300 or less copies in the CRV treated than in the vehicle [2]: 255 genes | number of genes with at least 300 copies more in the CRV treatment than in the Vehicle [2]: 210 genes
